Data as given in PubChem BioAssay AID1259424 (University of Nebraska Medical Center, 2018).

Purpose: 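Seek colon cancer survival genes behaving like KSR1, using a six-gene signature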 (primary screen)
Cells: human HCT116 colon cancer cells
Reagent: siRNA pool against human genes, 50 nM
Detection: 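Log2 levels of six mRNAs (branched-DNA multiplex), adjusted by two reference genes and the non-targeting median, then scored against the average KSR1 knockdown pattern as Pearson r and euclidean distance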
Direction: mean correlation with KSR1 profile: higher = expression change more like KSR1 knockdown; mean distance from KSR1 profile: higher = expression change less like KSR1 knockdown
The deposit covers about 14,000 reagents; shown is a part drawn at random. 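Higher correlation or smaller distance means closer resemblance to KSR1 loss; control wells, including KSR1 knockdowns, recur on many plates.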 Not all columns of the deposit are shown. Not stated in the record: the time to read-out.

gene | PubChem SID | mean correlation with KSR1 profile | mean distance from KSR1 profile
PCF11 | SID363999692 | -0.447 | 6.02
PKP2 | SID363995543 | 0.16 | 1.75
OR1F1 | SID363998259 | 0.757 | 1.21
EMILIN1 | SID363997777 | 0.211 | 2.33
ACTR1B | SID363996620 | -0.359 | 2.02
SEPHS1 | SID363998170 | -0.114 | 3.8
USP36 | SID364003243 | 0.0724 | 1.66
TUBB7P | SID364001474 | 0.162 | 2.68
LAMB3 | SID363991562 | -0.0381 | 4.16
CXCL2 | SID363993296 | 0.744 | 1.05
SMC5 | SID363999307 | -0.0471 | 2.86
RPS6 | SID363992307 | 0.425 | 2.15
PHF19 | SID364005172 | 0.0384 | 3.69
NEK4 | SID363994296 | 0.727 | 0.827
KIF22 | SID363997981 | 0.217 | 1.56
SETDB1 | SID363998314 | 0.258 | 1.9
NDUFA6 | SID363993663 | 0.533 | 0.946
KIF17 | SID364001848 | -0.323 | 2.14
POP7 | SID363996712 | -0.0238 | 4.27
LZTFL1 | SID364001618 | -0.273 | 1.48
RNF113A | SID363997714 | -0.391 | 2.25
KEAP1 | SID363998205 | -0.657 | 3.19
SNRPA | SID363995566 | -0.292 | 1.19
GBA2 | SID364001906 | 0.0402 | 2.45
TTC33 | SID363998270 | -0.683 | 2.04
NOL10 | SID364003142 | 0.327 | 2.11
CABP5 | SID364001459 | -0.155 | 1.67
RNFT2 | SID364004194 | 0.392 | 2.55
PHB1 | SID363993802 | 0.165 | 2.25
SRPK3 | SID363998794 | 0.153 | 1.56
SH3BP4 | SID363998922 | 0.356 | 2.24
NET1 | SID363996737 | -0.389 | 1.37
COPS4 | SID363999897 | -0.608 | 2.18
ATP6V1B1 | SID363992914 | 0.129 | 2.47

Limited to “mean distance from KSR1 profile”, for 4 of the entries above:
PCF11 [SID363999692] = 6.02
PKP2 [SID363995543] = 1.75
OR1F1 [SID363998259] = 1.21
EMILIN1 [SID363997777] = 2.33
